Values quoted from earlier work in US10100022B2, “Sphingosine kinase inhibitors” (University of Virginia Patent Foundation, priority 2014, dated 2018).
pKi: −log10 of the molar value. Some results were stated once for a whole list of compounds, not compound by compound. At least one compound was matched to its structure with a doubt left.

Target: sphingosine kinases
Conditions: prior-art inhibitors, read-out: typical KI value; cited from earlier work

N,N-dimethylsphingosine
pKi: < 5.00

CCCCCCCCCCCCCCC[C@H](O)[C@@H](N)CO (racemic) [DL-threo-dihydrosphingosine]
pKi: < 5.00
